Reference: patent US20140186823
Construct, isoform or probe ends are uncertain for at least one entry.

Key:
Helicase (unspecified) = test: binding assay; settings: 5mC; idSp spacer; 5' Cholesteryl-TEG on SEQ 32 [strand 1: 9, 27 (5mC); idSp spacer and 5' cholesteryl-TEG (SEQ 32) left out]; purified recombinant protein; letters built from the parent sequence and the stated change
[1] = molecular target: MS-(B1-L88N)8 (Mycobacterium smegmatis) (UniProt A0QR29); test: binding assay; settings: 5mC; idSp spacer; 5' Cholesteryl-TEG on SEQ 32 [strand 1: 9, 27 (5mC); idSp spacer and 5' cholesteryl-TEG (SEQ 32) left out]; 5-methylcytosine and cytosine give different current levels; purified recombinant protein; letters built from the parent sequence and the stated change

TTTTTTTTCTTTTTTTTCTTTTTTTTCGTTTTTTTTCGTTTTTTTTGTATCTCCATCGCTGCCCCCTTTTTCCCCCTTTTT / GGCAGCGATGGAGATACTTGAGGCGAGCGGTCAA / TTGACCGCTCGCCTC [5-methylcytosine substrate]
binding result (Helicase (unspecified)): binds
binding result [1]: binds
